Test results taken from US20240016892A1.
Results are given in words; binding and its absence hold for the method and conditions named. Some results given as binding are weak or reduced against the parent protein; the word gives no strength. Sequences can lack the tags named with a protein.

Target: FCγR2A (CD32)
Assay: MSD receptor binding assay, FCγR2A (CD32); drug at 10 µg/mL

binding: binds
B1: human TIGIT-Fc-LIGHT chimeric protein (Fc fusion)
chain: MMTGTIETTGNISAEKGGSIILQCHLSSTTAQVTQVNWEQQDQLLAICNADLGWHISPSFKDRVAPGPGLGLTLQSLTVNDTGEYFCIYHTYPDGTYTGRIFLEVLESSVAEHGARFQIPSKYGPPCPPCPAPEFLGGPSVFLFPPKPKDQLMISRTPEVTCVVVDVSQEDPEVQFNWYVDGVEVHNAKTKPREEQFNSTYRVVSVLTVLHQDWLSGKEYKCKVSSKGLPSSIEKTISNATGQPREPQVYTLPPSQEEMTKNQVSLTCLVKGFYPSDIAVEWESNGQPENNYKTTPPVLDSDGSFFLYSRLTVDKSRWQEGNVFSCSVLHEALHNHYTQKSLSLSLGKIEGRMDLQLHWRLGEMVTRLPDGPAGSWEQLIQERRSHEVNPAAHLTGANSSLTGSGGPLLWETQLGLAFLRGLSYHDGALVVTKAGYYYIYSKVQLGGVGCPLGLASTITHGLYKRTPRYPEELELLVSQQSPCGRATSSSRVWWDSSFLGGVVHLEAGEKVVVRVLDERLVRLRDGTRSYFGAFMV
